{"source": "PubChem BioAssay AID504444", "about": "(National Center for Advancing Translational Sciences (NCATS), 2011)", "note": "Screen size: about 360,000 compounds; about 7,500 (2.1%) were called active. Inconclusive results, whose numbers are uncertain, are shown with a selection of clear calls. The call rests on the fitted dose curve; in most records, active means well fitted inhibition curve with a large enough effect; inconclusive means small, poorly fitted or top-dose-only effect, or effect the other way; inactive means flat fitted curve, though single readings scatter. Potencies beside an inconclusive call are fits to weak or partial responses and may not hold up. Potency means the concentration at half of the fitted maximal effect."}
{"assay": "Nrf2 qHTS screen for inhibitors; further: nearly all actives have a fitted effect of over 60% in size", "details": "A549 ARE-Fluc reporter, luciferase luminescence, 18-24 h; series mostly up to 46 µM", "procedure,_shortened": "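A549 ARE_Fluc cells, 5000/well, 5% FBS OPTI-MEM; compounds in dose-response, 18-24 h at 37 °C/5% CO2; CellTiter-Fluor viability read (Ex 405/Em 525), then BugLite luciferase luminescence = Nrf2 activity.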"}
{"smiles": "CCOC(=O)C1CCCN(C(=O)Cn2ncc3c(C)n(Cc4ccccc4Cl)c(C)c3c2=O)C1", "note": "(configuration not stated)", "Potency": "inconclusive: 25.9 µM [falling, single point]"}
{"smiles": "CCc1ccc(CNC(=O)c2cc3ccccn3n2)cc1", "Potency": "inconclusive: 25.9 µM [falling, partial curve, poor fit]"}
{"smiles": "CSc1ccc(/C=N/NC(=O)c2ccccc2Cl)cc1", "Potency": "inconclusive: 6.51 µM [falling, partial curve, poor fit]"}
{"smiles": "NS(=O)(=O)c1cccc(NC(=O)COC(=O)c2ccccc2C(=O)c2ccccc2)c1", "Potency": "inconclusive: 20.6 µM [falling, partial curve, poor fit]"}
{"smiles": "O=C(CN1CCOCC1)Nc1ccc(Cl)c(Cl)c1", "Potency": "inconclusive: 29.1 µM [activator, partial curve, poor fit]"}
{"smiles": "Cc1cc(N2CCN(S(=O)(=O)c3ccc(Cl)cc3)CC2)c2ccccc2n1", "Potency": "active: 20.6 µM"}
{"smiles": "CCN(CC)CCCNC(=O)CCCn1ncn2c(cc3occc32)c1=O", "Potency": "inactive"}
{"smiles": "COc1ccc2nc(Nc3ccccc3)sc2c1", "Potency": "inconclusive: 16.4 µM [activator, partial curve]"}
{"smiles": "CC1CCCCN1C(=O)Cn1ncc2c3ccccc3n(Cc3ccccc3F)c2c1=O", "note": "(configuration not stated)", "Potency": "inconclusive: 29.1 µM [falling, single point]"}
{"smiles": "COc1ccccc1-c1noc(-c2ccc(NC3CCCCC3)c([N+](=O)[O-])c2)n1", "Potency": "inconclusive: 23.1 µM [activator, single point]"}
{"smiles": "CCOC(=O)c1c(NC(=S)Nc2cccc(C)c2)sc2c1CC(C)(C)SC2", "Potency": "inconclusive: 13 µM [falling, partial curve, poor fit]"}
{"smiles": "O=C(c1ccc(S(=O)(=O)N2CCCCC2)cc1)N1CCc2ccccc2C1", "Potency": "inconclusive: 5.17 µM [activator, single point]"}
{"smiles": "Cc1cc(C(=O)NNC(=S)NC2CCCCC2)cs1", "Potency": "inconclusive: 29.1 µM [falling, single point]"}
{"smiles": "c1ccc(-c2noc(-c3cccnc3NCc3ccco3)n2)cc1", "Potency": "inconclusive: 29.1 µM [falling, single point]"}
{"smiles": "Cc1ccc(S(=O)(=O)N(CC(=O)N=Nc2c(O)[nH]c3ccccc23)c2ccc(C)c(C)c2)cc1", "Potency": "inconclusive: 20.6 µM [falling, single point]"}
{"smiles": "O=C1CCc2cc(S(=O)(=O)Nc3ccc(Cl)cc3)ccc2N1", "Potency": "inconclusive: 29.1 µM [falling, single point]"}
{"smiles": "Nc1nn(-c2ccccc2)c(N)c1N=Nc1cccc(F)c1", "Potency": "inconclusive: 29.1 µM [activator, single point]"}
